# Experimental data taken from the supplement of paper PMC8728848.
# The list shows a part of the results.
# B1: CBP21 (Serratia marcescens), O83009 (protein)
# chain: MNKTSRTLLSLGLLSAAMFGVSQQANAHGYVESPASRAYQCKLQLNTQCGSVQAEPQSVEGLKGFPQAGPADGHIASADKSTFFELDQQTPTRWNKLNLKTGPNSFTWKLTARHSTTSWRYFITKPNWDASQPLTRASFDLTPFCQFNDGGAIPAAQVTHQCNIPADRSGSHVILAVWDIADTANAFYQAIDVNLSK
# Tests used:
# Test in all cases: glycan array binding signal (z-score within array); higher = stronger binding
# Details in all cases: glycan notation: IUPAC condensed, linker removed; mutation: Y54A
# [1] = molecular target: Neu5Gc(a2-8)Neu5Gc(a2-3)Gal(b1-4)GlcNAc(b1-3)Gal(b1-4)GlcNAc
# Procedure, shortened: (§1)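 Glycan array data were curated from 3228 arrays in the Consortium for Functional Glycomics database and kept only where the protein sequence was available. Glycan names were converted to IUPAC-condensed notation, and columns mapping to the same glycan were averaged. The binding signal is a within-array Z-score, averaged across arrays of the same protein sequence at different concentrations or buffers and across linkers. Negative Z-scores can be read as non-binding.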
# [2] = molecular target: Neu5Gc(a2-8)Neu5Gc(a2-6)Gal(b1-4)GlcNAc
# Procedure, shortened: as §1
# [3] = molecular target: Neu5Gc(b2-6)Gal(b1-4)GlcNAc
# Procedure, shortened: as §1
binder,measurement,setting,value
B1,glycan array binding signal (z-score),[1],-0.897
same,glycan array binding signal (z-score),[2],1.93
same,glycan array binding signal (z-score),[3],-0.206
